Taken from: PubChem BioAssay AID1259314 (Drosophila RNAi Screening Center, 2017)
Test: 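Modifiers of manganese chloride toxicity in fly cells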 (primary screen). Cells: Drosophila S2R+ cells. Reagent: long dsRNA against Drosophila genes. Duration: 5 days (4 days knock-down, then 1 day metal exposure). Treatment: manganese chloride added to 15 mM for 24 hours. Read-out: 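Luciferase ATP signal used as a proxy for viable cell number, reported as one averaged z-score per dsRNA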. Scale: mean ATP z-score: higher = more ATP than the plate average, more viable cells under manganese. Call rule: 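a mean ATP z-score past 1.5 in either direction is called active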. Calls: active = strong ATP change, up or down; inactive = no strong ATP change.
Shown is one part, drawn at random, of about 3,100 deposited reagents. Of all reagents, 289 (9.3%) are marked active. 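Active includes both higher and lower ATP than plate average; check the z-score sign for direction.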 Not given: the amount of reagent.

Which result is listed for Oatp33Ea (Organic anion transporting polypeptide 33Ea) [DRSC02859]?
mean ATP z-score: -0.885; Call: inactive

What is on record for Oatp33Ea (Organic anion transporting polypeptide 33Ea) [DRSC26461]?
mean ATP z-score: -0.973; Call: inactive

With COX7A (Cytochrome c oxidase subunit 7A) [DRSC16514], what was measured?
mean ATP z-score: -1.77; Call: active

How did the screen score CG4313 [DRSC18514]?
mean ATP z-score: 0.504; Call: inactive

What did the screen give for CG4313 [DRSC24627]?
mean ATP z-score: -1.34; Call: inactive

With Or13a (Odorant receptor 13a) [DRSC20265], what was measured?
mean ATP z-score: -0.0476; Call: inactive

With Or13a (Odorant receptor 13a) [DRSC39651], how do the results read?
mean ATP z-score: 1.37; Call: inactive

Targets listed so far whose gene name begins with C or c (3):
COX7A (Cytochrome c oxidase subunit 7A) [DRSC16514]: mean ATP z-score = -1.77; Call = active
CG4313 [DRSC18514]: mean ATP z-score = 0.504; Call = inactive
CG4313 [DRSC24627]: mean ATP z-score = -1.34; Call = inactive

The list goes on:
With CG5823 [DRSC15881], what was measured?
mean ATP z-score: -0.636; Call: inactive

How did the screen score CG5823 [DRSC39656]?
mean ATP z-score: 0.555; Call: inactive

What did the screen give for Tsp42Eo (Tetraspanin 42Eo) [DRSC06184]?
mean ATP z-score: 1.83; Call: active

For CG10183 [DRSC14203], what does the deposit list?
mean ATP z-score: 0.535; Call: inactive

What is on record for CG10183 [DRSC25343]?
mean ATP z-score: 0.186; Call: inactive

For Gr8a (Gustatory receptor 8a) [DRSC18043], how do the results read?
mean ATP z-score: 0.171; Call: inactive

Which result is listed for ine (inebriated) [DRSC00822]?
mean ATP z-score: -0.374; Call: inactive

What did the screen give for ine (inebriated) [DRSC28874]?
mean ATP z-score: -0.266; Call: inactive

Which result is listed for G6P (Glucose-6-Phosphatase) [DRSC00414]?
mean ATP z-score: 1.01; Call: inactive

Which result is listed for G6P (Glucose-6-Phosphatase) [DRSC27121]?
mean ATP z-score: -0.535; Call: inactive

Which result is listed for mthl15 (methuselah-like 15) [DRSC01120]?
mean ATP z-score: -0.265; Call: inactive

For mthl15 (methuselah-like 15) [DRSC39743], what does the deposit list?
mean ATP z-score: 0.971; Call: inactive
